Measurements from the supplement of paper PMC10849652.
The list shows a part of the results.

By UniProt entry, the sequences of proteins in these tests, tags left out. Where a name states a change or a piece, a line headed by the entry shows the natural chain unless it says otherwise.
UniProt O43681: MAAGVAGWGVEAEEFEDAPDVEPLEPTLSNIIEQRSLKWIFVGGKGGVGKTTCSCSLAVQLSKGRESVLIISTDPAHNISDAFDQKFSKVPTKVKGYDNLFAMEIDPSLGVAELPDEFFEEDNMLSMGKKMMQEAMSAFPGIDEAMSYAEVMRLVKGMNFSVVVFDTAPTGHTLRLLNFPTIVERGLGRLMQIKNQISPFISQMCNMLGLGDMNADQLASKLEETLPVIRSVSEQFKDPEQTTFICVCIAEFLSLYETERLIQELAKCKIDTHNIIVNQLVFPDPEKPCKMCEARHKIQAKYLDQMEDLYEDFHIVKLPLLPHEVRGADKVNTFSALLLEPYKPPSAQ
UniProt Q04656: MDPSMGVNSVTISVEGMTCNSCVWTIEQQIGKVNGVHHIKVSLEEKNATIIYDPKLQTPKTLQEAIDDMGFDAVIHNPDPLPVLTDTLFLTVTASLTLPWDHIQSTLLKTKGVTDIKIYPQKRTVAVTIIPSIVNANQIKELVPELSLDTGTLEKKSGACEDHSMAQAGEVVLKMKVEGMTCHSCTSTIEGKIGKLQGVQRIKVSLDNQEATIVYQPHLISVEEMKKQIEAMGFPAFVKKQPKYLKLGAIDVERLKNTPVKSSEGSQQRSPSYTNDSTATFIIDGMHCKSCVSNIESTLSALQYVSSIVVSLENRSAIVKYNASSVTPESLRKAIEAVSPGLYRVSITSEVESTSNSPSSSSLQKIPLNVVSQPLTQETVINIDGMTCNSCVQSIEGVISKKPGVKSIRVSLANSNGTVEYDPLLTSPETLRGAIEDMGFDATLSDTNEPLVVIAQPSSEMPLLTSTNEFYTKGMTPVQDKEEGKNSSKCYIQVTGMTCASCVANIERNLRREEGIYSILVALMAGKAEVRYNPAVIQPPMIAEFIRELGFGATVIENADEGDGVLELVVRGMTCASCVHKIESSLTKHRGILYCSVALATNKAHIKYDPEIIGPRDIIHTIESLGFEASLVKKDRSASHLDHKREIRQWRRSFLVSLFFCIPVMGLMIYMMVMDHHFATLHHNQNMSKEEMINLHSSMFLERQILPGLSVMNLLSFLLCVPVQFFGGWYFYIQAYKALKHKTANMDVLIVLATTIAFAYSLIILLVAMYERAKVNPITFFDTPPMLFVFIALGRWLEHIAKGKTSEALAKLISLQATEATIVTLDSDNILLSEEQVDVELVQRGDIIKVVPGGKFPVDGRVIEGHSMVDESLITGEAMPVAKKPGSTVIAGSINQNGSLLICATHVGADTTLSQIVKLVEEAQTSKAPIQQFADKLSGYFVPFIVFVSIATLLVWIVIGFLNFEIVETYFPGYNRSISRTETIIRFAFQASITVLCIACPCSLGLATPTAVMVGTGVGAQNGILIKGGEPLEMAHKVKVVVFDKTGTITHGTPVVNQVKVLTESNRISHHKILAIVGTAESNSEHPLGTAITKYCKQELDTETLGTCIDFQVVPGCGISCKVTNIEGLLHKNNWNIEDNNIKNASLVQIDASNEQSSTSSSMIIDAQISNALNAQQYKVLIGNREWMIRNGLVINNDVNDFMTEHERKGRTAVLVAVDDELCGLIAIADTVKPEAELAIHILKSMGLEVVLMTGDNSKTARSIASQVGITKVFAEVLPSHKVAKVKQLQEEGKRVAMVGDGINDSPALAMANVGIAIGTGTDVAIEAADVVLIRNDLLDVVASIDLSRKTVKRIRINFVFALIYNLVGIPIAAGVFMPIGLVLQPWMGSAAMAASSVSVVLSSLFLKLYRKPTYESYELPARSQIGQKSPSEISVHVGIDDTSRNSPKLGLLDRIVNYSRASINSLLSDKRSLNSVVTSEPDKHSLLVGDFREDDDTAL
UniProt P48047: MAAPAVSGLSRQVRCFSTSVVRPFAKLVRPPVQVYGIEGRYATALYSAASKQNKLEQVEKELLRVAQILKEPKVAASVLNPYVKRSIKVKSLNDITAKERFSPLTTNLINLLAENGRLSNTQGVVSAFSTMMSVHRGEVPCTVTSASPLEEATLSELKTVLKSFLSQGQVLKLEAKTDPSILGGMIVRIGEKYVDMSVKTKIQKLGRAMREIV
UniProt L0R819, whole entry, looked up: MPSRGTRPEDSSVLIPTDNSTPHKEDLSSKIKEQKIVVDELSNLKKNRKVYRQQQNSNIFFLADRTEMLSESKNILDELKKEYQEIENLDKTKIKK
UniProt Q6NXE6: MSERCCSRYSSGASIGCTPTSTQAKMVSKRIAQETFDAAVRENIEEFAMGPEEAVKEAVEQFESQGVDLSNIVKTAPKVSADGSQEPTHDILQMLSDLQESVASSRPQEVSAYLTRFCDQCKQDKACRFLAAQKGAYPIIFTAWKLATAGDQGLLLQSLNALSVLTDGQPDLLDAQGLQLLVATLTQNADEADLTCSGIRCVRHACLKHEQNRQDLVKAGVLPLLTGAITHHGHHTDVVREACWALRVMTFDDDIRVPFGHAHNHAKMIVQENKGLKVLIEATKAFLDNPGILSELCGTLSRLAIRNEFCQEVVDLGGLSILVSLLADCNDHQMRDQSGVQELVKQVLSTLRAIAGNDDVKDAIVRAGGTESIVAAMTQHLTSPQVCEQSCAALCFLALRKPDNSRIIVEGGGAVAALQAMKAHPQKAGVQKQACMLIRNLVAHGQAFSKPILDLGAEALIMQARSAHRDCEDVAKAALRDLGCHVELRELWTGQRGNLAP
UniProt P32121, whole entry, looked up: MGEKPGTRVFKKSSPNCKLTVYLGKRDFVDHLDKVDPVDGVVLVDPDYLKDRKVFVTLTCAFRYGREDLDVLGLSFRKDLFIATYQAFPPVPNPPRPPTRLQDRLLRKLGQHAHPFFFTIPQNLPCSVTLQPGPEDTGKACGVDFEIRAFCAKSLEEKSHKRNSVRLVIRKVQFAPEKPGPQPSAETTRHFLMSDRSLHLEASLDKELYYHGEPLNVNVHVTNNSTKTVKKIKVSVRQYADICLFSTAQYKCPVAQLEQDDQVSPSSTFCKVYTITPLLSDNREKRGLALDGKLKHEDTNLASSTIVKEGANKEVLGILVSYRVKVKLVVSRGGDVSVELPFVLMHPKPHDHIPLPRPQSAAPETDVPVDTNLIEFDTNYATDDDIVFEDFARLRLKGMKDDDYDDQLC
UniProt Q13510, whole entry, looked up: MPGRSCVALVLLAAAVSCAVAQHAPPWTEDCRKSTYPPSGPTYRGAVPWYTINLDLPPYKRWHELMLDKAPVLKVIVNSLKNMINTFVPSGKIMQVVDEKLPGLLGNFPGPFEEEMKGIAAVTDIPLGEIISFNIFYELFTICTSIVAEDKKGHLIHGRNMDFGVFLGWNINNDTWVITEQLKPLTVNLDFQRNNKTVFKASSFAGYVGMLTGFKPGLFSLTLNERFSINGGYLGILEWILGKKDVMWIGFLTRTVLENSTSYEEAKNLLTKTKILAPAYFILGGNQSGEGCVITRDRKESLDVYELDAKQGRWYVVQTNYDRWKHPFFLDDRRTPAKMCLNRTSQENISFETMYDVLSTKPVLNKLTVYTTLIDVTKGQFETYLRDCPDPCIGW
UniProt Q9UH62: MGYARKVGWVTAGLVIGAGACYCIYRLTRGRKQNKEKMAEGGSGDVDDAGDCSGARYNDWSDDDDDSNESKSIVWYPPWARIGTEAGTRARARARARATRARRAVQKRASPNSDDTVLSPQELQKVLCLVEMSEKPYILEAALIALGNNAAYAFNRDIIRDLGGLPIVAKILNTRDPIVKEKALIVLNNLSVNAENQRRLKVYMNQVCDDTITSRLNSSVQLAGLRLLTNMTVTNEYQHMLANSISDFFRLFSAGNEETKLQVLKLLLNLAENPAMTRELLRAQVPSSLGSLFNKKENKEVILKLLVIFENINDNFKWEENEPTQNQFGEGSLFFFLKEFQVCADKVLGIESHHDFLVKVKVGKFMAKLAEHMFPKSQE
UniProt Q12797: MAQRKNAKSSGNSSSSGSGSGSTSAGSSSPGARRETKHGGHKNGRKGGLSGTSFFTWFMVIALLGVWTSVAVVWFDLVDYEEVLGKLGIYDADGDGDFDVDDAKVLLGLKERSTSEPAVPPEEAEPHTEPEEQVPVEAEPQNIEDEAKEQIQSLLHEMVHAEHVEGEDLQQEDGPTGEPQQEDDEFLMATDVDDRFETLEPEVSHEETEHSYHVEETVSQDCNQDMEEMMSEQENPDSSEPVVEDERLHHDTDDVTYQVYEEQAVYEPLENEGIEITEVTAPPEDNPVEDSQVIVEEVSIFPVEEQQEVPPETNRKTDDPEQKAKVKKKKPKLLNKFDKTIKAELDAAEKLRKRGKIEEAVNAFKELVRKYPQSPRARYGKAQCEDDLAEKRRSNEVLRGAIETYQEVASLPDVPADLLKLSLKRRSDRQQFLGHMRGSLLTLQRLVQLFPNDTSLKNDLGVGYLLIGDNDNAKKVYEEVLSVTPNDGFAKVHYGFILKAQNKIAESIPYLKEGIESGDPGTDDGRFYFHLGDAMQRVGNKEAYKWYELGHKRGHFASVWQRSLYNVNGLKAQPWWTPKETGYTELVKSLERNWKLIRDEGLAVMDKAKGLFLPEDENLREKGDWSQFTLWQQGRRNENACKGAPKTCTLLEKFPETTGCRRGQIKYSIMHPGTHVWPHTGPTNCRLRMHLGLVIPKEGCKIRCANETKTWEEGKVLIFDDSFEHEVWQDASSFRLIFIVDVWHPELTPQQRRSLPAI
UniProt Q92747, whole entry, looked up: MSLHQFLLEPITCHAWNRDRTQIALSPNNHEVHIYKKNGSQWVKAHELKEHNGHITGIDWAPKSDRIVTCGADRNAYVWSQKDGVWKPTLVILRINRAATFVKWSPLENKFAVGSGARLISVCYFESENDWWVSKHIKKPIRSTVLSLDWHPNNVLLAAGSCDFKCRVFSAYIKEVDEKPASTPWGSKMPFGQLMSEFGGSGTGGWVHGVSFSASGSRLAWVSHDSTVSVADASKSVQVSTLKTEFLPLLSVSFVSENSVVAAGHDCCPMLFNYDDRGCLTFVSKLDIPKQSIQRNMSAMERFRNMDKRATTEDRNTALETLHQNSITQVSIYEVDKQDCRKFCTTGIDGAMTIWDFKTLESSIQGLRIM
UniProt P18859: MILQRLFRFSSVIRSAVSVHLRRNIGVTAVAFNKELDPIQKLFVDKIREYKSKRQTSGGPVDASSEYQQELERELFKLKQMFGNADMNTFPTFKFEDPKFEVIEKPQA
UniProt P54259: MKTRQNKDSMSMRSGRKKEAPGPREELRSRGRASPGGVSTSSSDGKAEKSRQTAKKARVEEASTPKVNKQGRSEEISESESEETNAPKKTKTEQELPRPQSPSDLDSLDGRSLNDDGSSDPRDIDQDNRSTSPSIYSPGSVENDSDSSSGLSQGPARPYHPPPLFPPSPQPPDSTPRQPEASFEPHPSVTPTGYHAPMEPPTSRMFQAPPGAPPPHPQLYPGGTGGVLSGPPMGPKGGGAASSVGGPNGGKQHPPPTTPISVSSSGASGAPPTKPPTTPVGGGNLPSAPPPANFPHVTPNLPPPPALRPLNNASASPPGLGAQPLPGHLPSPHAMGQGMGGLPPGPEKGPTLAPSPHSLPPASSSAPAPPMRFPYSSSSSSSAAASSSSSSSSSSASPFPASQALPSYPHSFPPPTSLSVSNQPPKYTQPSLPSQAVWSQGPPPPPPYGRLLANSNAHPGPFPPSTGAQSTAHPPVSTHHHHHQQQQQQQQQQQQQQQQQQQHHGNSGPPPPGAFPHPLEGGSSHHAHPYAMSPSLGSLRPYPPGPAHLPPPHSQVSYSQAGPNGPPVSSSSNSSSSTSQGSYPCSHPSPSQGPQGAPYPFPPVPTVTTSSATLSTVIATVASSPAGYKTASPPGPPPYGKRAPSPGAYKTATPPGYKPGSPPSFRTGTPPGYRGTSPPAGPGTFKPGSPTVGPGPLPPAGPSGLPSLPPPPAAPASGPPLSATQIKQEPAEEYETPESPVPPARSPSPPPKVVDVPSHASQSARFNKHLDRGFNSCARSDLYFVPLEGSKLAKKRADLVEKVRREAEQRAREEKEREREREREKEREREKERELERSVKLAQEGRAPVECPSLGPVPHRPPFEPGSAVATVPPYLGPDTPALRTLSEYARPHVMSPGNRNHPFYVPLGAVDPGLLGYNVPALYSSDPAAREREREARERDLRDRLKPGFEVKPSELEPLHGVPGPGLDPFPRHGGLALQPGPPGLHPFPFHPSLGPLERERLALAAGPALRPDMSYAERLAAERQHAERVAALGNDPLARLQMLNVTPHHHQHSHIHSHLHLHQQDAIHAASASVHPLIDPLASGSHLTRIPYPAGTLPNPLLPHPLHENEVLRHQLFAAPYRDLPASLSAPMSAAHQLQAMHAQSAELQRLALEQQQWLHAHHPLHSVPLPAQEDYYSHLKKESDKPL
UniProt Q9Y294, whole entry, looked up: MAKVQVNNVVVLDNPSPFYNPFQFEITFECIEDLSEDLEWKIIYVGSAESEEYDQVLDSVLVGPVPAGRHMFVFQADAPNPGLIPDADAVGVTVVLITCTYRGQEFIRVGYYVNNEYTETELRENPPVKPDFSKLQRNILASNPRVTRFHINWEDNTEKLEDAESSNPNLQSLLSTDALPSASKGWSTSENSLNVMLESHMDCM

How the values were obtained:
Test in all cases: log2 fold change, soluble protein after heating vs DMSO (PISA); higher = thermal stabilisation; K562 cells, 10 uM, 30 min; active = over 0.2 and 3.5 SD of the protein, either way, in both replicates (recomputed)
[1] = compound: COC1=CC=C(C=C1)CN2C=CC3=C2C=C(C=C3)C(=O)NO
Method in brief: (§1)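 Soluble protein was defined as the supernatant after 21,000xg for 90 min. It came from K562 cells at 2×10^6 cells/mL given 10 μM compound for 30 min, heated in aliquots for 3 min across 48°C-58°C, pooled, and extracted in PBS with 0.5% NP-40 at 4°C, and was quantified by TMTpro 16plex LC-MS/MS with equalised channel sums. Thermal stability against control samples, from duplicates, is reported as log2 fold change.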

[2] = compound: CON(C)C(=O)N1N=C(c2cc(F)ccc2F)S[C@@]1(CCCN)c1ccccc1 [filanesib]
Method in brief: as §1

[3] = compound: CO[C@H]1C[C@@H]2CC[C@@H](C)[C@@](O)(O2)C(=O)C(=O)N2CCCC[C@H]2C(=O)O[C@H]([C@H](C)C[C@@H]2CC[C@H](n3cnnn3)[C@H](OC)C2)CC(=O)[C@H](C)/C=C(\C)[C@@H](O)[C@@H](OC)C(=O)[C@H](C)C[C@H](C)/C=C/C=C/C=C/1C [zotarolimus]
Method in brief: as §1

[4] = compound: COc1cc(C(=O)O)ccc1NC(=O)[C@@H]1N[C@@H](CC(C)(C)C)[C@](C#N)(c2ccc(Cl)cc2F)[C@H]1c1cccc(Cl)c1F [idasanutlin]
Method in brief: as §1

[5] = compound: COc1cc(Nc2ncc3c(n2)-c2ccc(Cl)cc2C(c2c(F)cccc2OC)=NC3)ccc1C(=O)O [alisertib]
Method in brief: as §1

[6] = compound: COc1cc2nc(-c3cc(F)ccc3O)nc(N[C@@H]3CNC[C@H]3C(C)(C)O)c2cc1OC
Method in brief: as §1

[7] = compound: COc1cc2ncnc(Nc3ccc(F)c(Cl)c3)c2cc1OCCCN1CCOCC1 [gefitinib]
Method in brief: as §1

[8] = compound: COc1cccc2cc(-c3nc([C@H]4CC[C@H](C(=O)O)CC4)n4ncnc(N)c34)[nH]c12
Method in brief: as §1

[9] = compound: CS(=O)(=O)CCNCc1ccc(-c2ccc3ncnc(Nc4ccc(OCc5cccc(F)c5)c(Cl)c4)c3c2)o1 [lapatinib]
Method in brief: as §1

[10] = compound: CS(=O)(=O)N1CCN(Cc2cc3nc(-c4cccc5[nH]ncc45)nc(N4CCOCC4)c3s2)CC1 [pictilisib]
Method in brief: as §1

[11] = compound: CS(=O)(=O)c1ccc(-c2cnc(N)c(C(=O)Nc3ccccc3)n2)cc1
Method in brief: as §1

[12] = compound: C[C@@H](Oc1cc(-c2cnn(C3CCNCC3)c2)cnc1N)c1c(Cl)ccc(F)c1Cl [crizotinib]
Method in brief: as §1

[13] = compound: C[C@@H]1COCCN1C2=NC(=NC(=C2)C3(CC3)S(=O)(=O)C)C4=C5C=CNC5=CC=C4
Method in brief: as §1

[14] = compound: C[C@H](C1=CC=C(C=C1)C(=O)NC2=C3C=CNC3=NC=C2)N
Method in brief: as §1

[15] = compound: C[C@H](Nc1ncnc2nc[nH]c12)c1cc2cccc(Cl)c2c(=O)n1-c1ccccc1 [duvelisib]
Method in brief: as §1

[16] = compound: Cc1cc(Nc2cc(CN3CCOCC3)c3nc(C)c(Cc4ccc(Cl)cc4F)n3n2)n[nH]1 [gandotinib]
Method in brief: as §1

[17] = compound: Cc1cc(Nc2cc(N3CCN(C)CC3)nc(Sc3ccc(NC(=O)C4CC4)cc3)n2)n[nH]1 [tozasertib]
Method in brief: as §1

[18] = compound: Cc1cc(SCc2sc(-c3ccc(C(F)(F)F)cc3)nc2C)ccc1OCC(=O)O
Method in brief: as §1

[19] = compound: Cc1ccc(-n2nc(C(C)(C)C)cc2NC(=O)Nc2ccc(OCCN3CCOCC3)c3ccccc23)cc1 [doramapimod]
Method in brief: as §1

[20] = compound: Cc1ccc(C(=O)N(CCCN)[C@@H](c2nc3cc(Cl)ccc3c(=O)n2Cc2ccccc2)C(C)C)cc1 [ispinesib]
Method in brief: as §1

Measured: log2 fold change

ASNA1 (UniProt O43681)
inactive: [1] 0.044 | [2] -0.053 | [3] 0.013 | [4] -0.052 | [5] -0.045 | [6] -0.033 | [7] 0 | [8] 0.071 | [9] -0.001 | [10] 0.041 | [11] -0.035 | [12] 0.042 | [13] 0.021 | [14] 0.001 | [15] 0.047 | [16] 0.002 | [17] 0.004 | [18] -0.002 | [19] 0.004 | [20] 0.091

ASPSCR1 isoform 2 (UniProt Q9BZE9)
inactive: [1] 0.033 | [2] 0.064 | [3] -0.028 | [4] 0.007 | [5] -0.016 | [6] -0.014 | [7] 0.059 | [8] 0.032 | [9] 0.028 | [10] 0.004 | [11] 0.059 | [12] -0.012 | [13] 0.013 | [14] 0.081 | [15] 0.063 | [16] -0.044 | [17] 0.03 | [18] 0.011 | [19] 0.007 | [20] 0.045

ATP7A isoform 3 (UniProt Q04656)
inactive: [1] -0.066 | [2] 0.06 | [3] -0.001 | [4] -0.033 | [5] -0.021 | [6] 0.121 | [7] 0.09 | [8] -0.007 | [9] 0 | [10] 0.073 | [11] -0.012 | [12] 0.11 | [13] 0.003 | [14] -0.052 | [15] 0.021 | [16] 0.003 | [17] 0.013 | [18] -0.005 | [19] -0.005 | [20] 0.119

ATP5PO (UniProt P48047)
inactive: [1] 0.042 | [2] -0.025 | [3] 0 | [4] 0.043 | [5] -0.063 | [6] -0.008 | [7] -0.001 | [8] 0.038 | [9] 0 | [10] 0.003 | [11] -0.01 | [12] 0.065 | [13] -0.014 | [14] -0.014 | [15] -0.01 | [16] -0.006 | [17] -0.018 | [18] -0.037 | [19] -0.02 | [20] -0.022

ASDURF (UniProt L0R819)
inactive: [1] 0.048 | [2] 0.036 | [3] -0.019 | [4] 0.022 | [5] -0.031 | [6] -0.052 | [7] -0.033 | [8] 0.069 | [9] -0.018 | [10] 0.024 | [11] -0.004 | [12] 0.044 | [13] -0.005 | [14] -0.02 | [15] 0.01 | [16] 0.045 | [17] -0.007 | [18] -0.033 | [19] 0.006 | [20] 0.006

ARMC6 (UniProt Q6NXE6)
inactive: [1] -0.017 | [2] 0.222 | [3] 0.12 | [4] 0.19 | [5] -0.073 | [6] -0.088 | [7] 0.014 | [8] -0.164 | [9] 0.083 | [10] -0.02 | [11] 0.131 | [12] -0.066 | [13] -0.262 | [14] 0.416 | [15] -0.147 | [16] 0.011 | [17] 0.133 | [18] 0.24 | [19] 0.318 | [20] -0.302

ARRB2 isoform 4 (UniProt P32121)
inactive: [1] -0.103 | [2] -0.048 | [3] 0.009 | [4] -0.012 | [5] -0.073 | [6] 0.085 | [7] 0.009 | [8] 0.066 | [9] -0.028 | [10] 0.068 | [11] 0.025 | [12] 0.037 | [13] 0.081 | [14] -0.029 | [15] 0.103 | [16] -0.034 | [17] -0.012 | [18] -0.034 | [19] 0.062 | [20] -0.018

Quoted from the results shown (two entries):
ATP7A isoform 3 (UniProt Q04656)
inactive: [1] -0.066 | [2] 0.06 | [3] -0.001 | [4] -0.033 | [5] -0.021 | [6] 0.121 | [7] 0.09 | [8] -0.007 | [9] 0 | [10] 0.073 | [11] -0.012 | [12] 0.11 | [13] 0.003 | [14] -0.052 | [15] 0.021 | [16] 0.003 | [17] 0.013 | [18] -0.005 | [19] -0.005 | [20] 0.119

ATP5PO (UniProt P48047)
inactive: [1] 0.042 | [2] -0.025 | [3] 0 | [4] 0.043 | [5] -0.063 | [6] -0.008 | [7] -0.001 | [8] 0.038 | [9] 0 | [10] 0.003 | [11] -0.01 | [12] 0.065 | [13] -0.014 | [14] -0.014 | [15] -0.01 | [16] -0.006 | [17] -0.018 | [18] -0.037 | [19] -0.02 | [20] -0.022

Further records follow:

ASAH1 isoform 2 (UniProt Q13510)
inactive: [1] 0.029 | [2] -0.078 | [3] -0.038 | [4] -0.002 | [5] -0.009 | [6] -0.003 | [7] -0.115 | [8] 0.071 | [9] -0.069 | [10] 0.034 | [11] -0.002 | [12] -0.081 | [13] 0.001 | [14] -0.066 | [15] 0.043 | [16] -0.021 | [17] -0.04 | [18] 0 | [19] -0.004 | [20] 0.02

ARMCX3 (UniProt Q9UH62)
inactive: [1] 0.002 | [2] 0.074 | [3] 0.004 | [4] 0.02 | [5] 0.084 | [6] 0.128 | [7] -0.039 | [8] 0.036 | [9] -0.042 | [10] -0.011 | [11] 0.017 | [12] -0.112 | [13] 0.113 | [14] 0.169 | [15] 0.012 | [16] 0.059 | [17] 0.115 | [18] 0.022 | [19] 0.1 | [20] -0.103

ARRB1 (UniProt P49407)
inactive: [1] -0.016 | [2] -0.032 | [3] 0.07 | [4] -0.056 | [5] 0 | [6] 0.019 | [7] 0.013 | [8] 0.02 | [9] -0.022 | [10] 0.064 | [11] 0 | [12] 0.034 | [13] 0.004 | [14] -0.218 | [15] 0.023 | [16] -0.005 | [17] -0.007 | [18] -0.017 | [19] -0.001 | [20] 0.002

ASPH (UniProt Q12797)
inactive: [1] -0.043 | [2] 0.168 | [3] 0.007 | [4] 0.035 | [5] -0.125 | [6] 0 | [7] -0.016 | [8] -0.097 | [9] 0.094 | [10] -0.077 | [11] -0.026 | [12] 0 | [13] -0.135 | [14] 0.243 | [15] -0.064 | [16] 0.088 | [17] 0.001 | [18] 0.085 | [19] 0.03 | [20] -0.059

ARPC1A (UniProt Q92747)
inactive: [1] -0.041 | [2] 0.017 | [3] 0.004 | [4] -0.014 | [5] 0.335 | [6] 0.065 | [7] -0.019 | [8] 0.108 | [9] -0.009 | [10] -0.033 | [11] -0.002 | [12] 0.027 | [13] 0.037 | [14] -0.068 | [15] 0.029 | [16] 0.09 | [17] 0.01 | [18] -0.035 | [19] 0.031 | [20] 0.066

ASAP1 isoform 2 (UniProt Q9ULH1)
inactive: [1] 0.025 | [2] 0.122 | [3] 0.02 | [4] 0.088 | [5] -0.009 | [6] 0.141 | [7] 0.133 | [8] 0.01 | [9] -0.071 | [10] -0.044 | [11] -0.032 | [12] -0.08 | [13] -0.022 | [14] -0.015 | [15] 0.01 | [16] 0.035 | [17] 0.052 | [18] 0.058 | [19] 0.057 | [20] 0.018

ATP5PF isoform 2 (UniProt P18859)
inactive: [1] 0 | [2] 0.122 | [3] 0.04 | [4] 0.029 | [5] -0.055 | [6] -0.183 | [7] 0.032 | [8] 0.036 | [9] -0.058 | [10] 0.106 | [11] 0.098 | [12] 0.215 | [13] 0.057 | [14] -0.134 | [15] 0.068 | [16] 0.163 | [17] 0.014 | [18] -0.034 | [19] 0.044 | [20] 0.108

ATN1 (UniProt P54259)
inactive: [1] 0.101 | [2] 0.079 | [3] -0.001 | [4] -0.013 | [5] -0.019 | [6] -0.038 | [7] -0.051 | [8] 0.018 | [9] -0.031 | [10] 0.056 | [11] 0.002 | [12] -0.036 | [13] -0.08 | [14] 0.015 | [15] -0.024 | [16] -0.002 | [17] 0.007 | [18] -0.07 | [19] 0.016 | [20] 0.033

ASF1A (UniProt Q9Y294)
inactive: [1] -0.008 | [2] -0.093 | [3] -0.007 | [4] 0.013 | [5] -0.038 | [6] 0.024 | [7] 0.005 | [8] 0.036 | [9] -0.001 | [10] 0.002 | [11] -0.077 | [12] -0.025 | [13] -0.096 | [14] -0.036 | [15] -0.029 | [16] -0.107 | [17] 0.01 | [18] 0.043 | [19] -0.011 | [20] 0.059
